No constants are given. Whether binding was seen depends on the method and setting. For some assays here: Binding seen in cells or lysates may run through a third protein. For some assays here: Binding calls can cover weak binding; strength is not graded here.
B1: chimeric Kv4.3 subunit (Kv4.3ch) (protein, rat)
chain: MAAGVAAWLPFARAAAIGWMPVANCPMPLAPADKNKRQDELIVLNVSGRRFQTWRTTLERYPDTLLGSTEKEFFFNEDTKEYFFDRDPEVFRCVLNFYRTGKLHYPRYECISAYDDELAFYGILPEIIGDCCYEEYKDRKRENAERLMDDNESENNQESMPSLSFRQTMWRAFENPHTSTLALVFYYVTGFFIAVSVITNVVETVPCGTVPGSKELPCGERYSVAFFCLDTACVMIFTVEYLLRLFAAPSRYRFIRSVMSIIDVVAIMPYYIGLVMTNNEDVSGAFVTLRVFRVFRIFKFSRHSQGLRILGYTLKSCASELGFLLFSLTMAIIIFATVMFYAEKGSSASKFTSIPASFWYTIVTMTTLGYGDMVPKTIAGKIFGSICSLSGVLVIALPVPVIVSNFSRIYHQNQRADKRRAQKKARLARIRVAKTGSSNAYLHSKRNGLLNEALELTGTPEEEHMGKTTSLIESQHHHLLHCLEKTTGLSYLVDDPLLSVRTSTIKNHEFIDEQMFEQNCMESSMQNYPSTRSPSLSSHSGLTTTCCSRRSKKTTHLPNSNLPATRLRSMQELSTIHIQGSEQPSLTTSRSSLNLKADDGLRPNCKTSQITTAIISIPTPPALTPEGESRPPPASPGPNTNIPSITSNVVKVSVLSNAKAVETDV
B2: rat 1v (protein)
chain: MPARVLLAYPGTEMLTQGESEGLQTLGIVVVLCSSLKLLHYLGLIDLSDDKIEDDLEMTMVCHRPEGLEQLEAQTNFTKRELQVLYRGFKNECPSGVVNEETFKQIYAQFFPHGDASTYAHYLFNAFDTTQTGSVKFEDFVTALSILLRGTVHEKLRWTFNLYDINKDGYINKEEMMDIVKAIYDMMGKYTYPVLKEDTPRQHVDVFFQKMDKNKDGIVTLDEFLESCQEDDNIMRSLQLFQNVM

Tests used:
[1] = molecular target: PSD-95; experiment: immunofluorescence and reciprocal co-immunoprecipitation, COS-1 cells
[2] = molecular target: PSD-95; experiment: control coexpression in COS-1 cells

Row | Binder | binding [1] | binding [2]
1 | B1 | binds | –
2 | B2 | – | no binding

Reference: patent US20030119102A1
